Patent US20250122397A1, “FOOD SAFE AQUEOUS INKJET COMPOSITIONS” (Canon Production Printing Holding B.V., priority 2023, published 2025)

Experiment: Smell test of aqueous Mg-salt solutions
Conditions: for smell test (pass): 1.5 mol/kg aqueous Mg-salt solution, summary of Table 1; for Smell (Yes/No): magnesium salt 1.5 mol/kg in demineralized water

Compound	smell test (pass)	Smell (Yes/No)
O=S(=O)([O-])[O-].[Mg+2] [compound 1, Mg-sulfate, reference compound]	pass	No
O=[N+]([O-])[O-].O=[N+]([O-])[O-].[Mg+2] [compound 2, Mg-nitrate, reference compound]	pass	No
CC(=O)[O-].CC(=O)[O-].[Mg+2] [compound 3]		Yes
O=C[O-].O=C[O-].[Mg+2] [compound 4]		Yes
CC(O)C(=O)[O-].CC(O)C(=O)[O-].[Mg+2] (stereo not shown) [compound 5]		No
CCC(=O)[O-].CCC(=O)[O-].[Mg+2] [compound 6]		Yes
O=C([O-])C(O)C(O)C(=O)[O-].[Mg+2] (stereo not shown) [compound 7]		No
C=C(CC(=O)[O-])C(=O)[O-].[Mg+2] [compound 8, Mg-itaconate]	pass	No
CCCC(=O)[O-].CCCC(=O)[O-].[Mg+2] [compound 9]		Yes
O=C([O-])CCC(=O)[O-].[Mg+2] [compound 10, Mg-succinate]	pass	No
O=C([O-])/C=C/C(=O)[O-].[Mg+2] [compound 11]		No
C/C=C/C=C/C(=O)[O-].C/C=C/C=C/C(=O)[O-].[Mg+2] [compound 12]		No
O=C([O-])CCCC(=O)[O-].[Mg+2] [compound 13]		No
CC(=O)CCC(=O)[O-].CC(=O)CCC(=O)[O-].[Mg+2] [compound 14, Mg-levulinate]	pass	No
O=C([O-])CCCCC(=O)[O-].[Mg+2] [compound 15, Mg-adipate]	pass	No
O=C([O-])CC(=O)[O-].[Mg+2] [compound 16]		No
O.O.O=C([O-])[C@H](O)[C@@H](O)[C@H](O)[C@H](O)CO.O=C([O-])[C@H](O)[C@@H](O)[C@H](O)[C@H](O)CO.[Mg+2] [compound 17]		No
O=C([O-])CC(O)C(=O)[O-].[Mg+2] (stereo not shown) [compound 18]		No
O=C([O-])CCCCCC(=O)[O-].[Mg+2] [compound 19]		No
